Counter-ions that a name gives are not always drawn. This is one part of the list. Hit calls seldom repeat between salt and free forms of one compound.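 Kinases were expressed as nanoluciferase fusions in K562 cells and luminescence was read every 4 h between 2 and 18 h as percent of control, DMSO set to 100% and a positive control to 0%. A time point counts as decreased when the signal drops significantly (2 sigma). The hit call is the authors' own, does not follow from the count of time points alone, and its rule is not shown.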
target: RAF1 (UniProt P04049); assay: number of time points (of 5) at which kinase-Nluc abundance scored as decreased, DMSO-normalised (count); higher = more persistent destabilization; settings: K562; 2-18 h

Row | SMILES | number of time points
1 | COc1ccc(Cn2cc(C(=O)N=Nc3c(O)[nH]c4c(C)cccc34)nn2)cc1 [MARK4 inhibitor 1] (10 µM) | 0
2 | COc1cc([N+](=O)[O-])ccc1S(=O)(=O)N1C[C@@H](CN2CCN(c3ccccn3)CC2)[C@H](c2cccc(F)c2)C1 (relative stereo) (10 µM) | 0
3 | Cc1cc(Nc2nc(N[C@@H](C)c3ccc(F)cc3)c(C#N)cc2F)n[nH]1 (10 µM) | 0
4 | Cc1ccc(S(=O)(=O)/C=C/C#N)cc1 (10 µM) | 0
5 | Cc1c(CN2CCN(S(C)(=O)=O)CC2)sc2c(N3CCOCC3)nc(-c3cnc(N)nc3)nc12 (2.5 µM) | 0
6 | COc1ccc(-c2ccc3c(N4CCOC[C@@H]4C)nc(N4CCOC[C@@H]4C)nc3n2)cc1CO (2.5 µM) | 3
7 | CCN(CC)S(=O)(=O)c1ccc(OC)c(N2CCN(C(=O)c3ccc(F)cc3C(F)(F)F)CC2)c1 (10 µM) | 0
8 | CC1CN(C(=O)Nc2ccc(Cl)c(Cl)c2)C(=Nc2ccc(F)cc2)S1 (configuration not stated) (10 µM) | 0
9 | COCCO[C@@H]1[C@H](O)[C@@H](CO)O[C@H]1n1cnc2c(=O)[nH]c(N)nc21 [2′-O-(2-Methoxyethyl)guanosine] (10 µM) | 0
10 | COc1cc(F)c(F)c(Nc2ccc(I)cc2F)c1NS(=O)(=O)C1(C[C@H](O)CO)CC1 [Refametinib] (10 µM) | 2
11 | CC(C)=CC[C@H](O)C1=CC(=O)c2c(O)ccc(O)c2C1=O [(-)-Alkannin] (2.5 µM) | 0
12 | C[C@@]1(O)CCC[C@H]1n1c(=O)c(C(F)F)cc2cnc(NC3CCN(S(C)(=O)=O)CC3)nc21 (2.5 µM) | 0
13 | CS(=O)(=O)c1ccc(-c2noc(C(F)(F)F)c2-c2ccccc2)cc1 (10 µM) | 0
14 | COc1ccc2[nH]cc(/C=C3\C(=O)Nc4ccc(NC(=O)CCN5CCCCC5)cc43)c2c1 (2.5 µM) | 0
15 | O=C(Nc1ccc(F)cc1F)[C@H](NC(=S)Nc1cc(C(F)(F)F)cc(C(F)(F)F)c1)c1ccccc1 (2.5 µM) | 0
16 | CC(C)CN[C@H]1CS(=O)(=O)C[C@@H]1S(=O)(=O)c1ccc(Cl)cc1 (10 µM) | 0

Retrieved by compound from the entries so far, two records:
Row | SMILES | number of time points
9 | COCCO[C@@H]1[C@H](O)[C@@H](CO)O[C@H]1n1cnc2c(=O)[nH]c(N)nc21 [2′-O-(2-Methoxyethyl)guanosine] (10 µM) | 0
8 | CC1CN(C(=O)Nc2ccc(Cl)c(Cl)c2)C(=Nc2ccc(F)cc2)S1 (configuration not stated) (10 µM) | 0

Remaining list, next part.

Row | SMILES | number of time points
17 | COc1ccc(C2CC(c3ccccc3)=NN2c2ccc(S(N)(=O)=O)cc2)cc1 (configuration not stated) (10 µM) | 0
18 | CC/C=C\C/C=C\C/C=C\CCCCCCCC(=O)O [α-Linolenic acid] (10 µM) | 0
19 | O=C(Nc1nc2ccccc2[nH]1)c1cccc(-n2cccc2)c1 (10 µM) | 0
20 | COc1ncc(-c2nc(N3CCOCC3)nc3c(CN4CCC(C(C)(C)O)CC4)cc(F)cc23)cc1NS(C)(=O)=O [Linperlisib] (10 µM) | 0
21 | COc1ccc([C@H]2c3[nH]c4ccc(Cl)cc4c3CCN2C(=O)Oc2ccc(Cl)cc2)cc1 (2.5 µM) | 0
22 | COc1c(NC(=O)C(=O)c2ccc(OCCN3CCOCC3)c3ccccc23)cc(C(C)(C)C)cc1NS(C)(=O)=O (2.5 µM) | 0
23 | COc1ccc([C@@H]2CC(=O)c3c(O)cc(O)cc3O2)cc1O [Hesperetin] (10 µM) | 0
24 | N#Cc1cccc(-c2c[nH]c3ncnc(N4CCOCC4)c23)c1 (10 µM) | 0
25 | C/C(=C1/C(=O)Nc2ccc(NC(N)=O)cc21)c1ccc[nH]1 (10 µM) | 0
26 | Nc1ncnc2c1c(-c1ccc(Oc3ccccc3)cc1)nn2C1CCNCC1 [N-piperidine Ibrutinib (hydrochloride)] (10 µM) | 0
27 | N#Cc1ccc2ncnc(NC3CCC(N4CCOCC4)CC3)c2c1 (configuration not stated) (10 µM) | 0
28 | CC(=O)c1c(C)c2cnc(Nc3ccc(N4CCN(CCCCNC(=O)COc5cccc6c5C(=O)N(C5CCC(=O)NC5=O)C6=O)CC4)cn3)nc2n(C2CCCC2)c1=O (configuration not stated) (10 µM) | 0
29 | CC(C)=CC(=O)CCC(=O)N1CCN(Cc2cc3nc(-c4cccc5[nH]ncc45)nc(N4CCOCC4)c3s2)CC1 (10 µM) | 0
30 | Cc1ccc(S(=O)(=O)Nc2ccccc2C=Nc2ccccc2NS(=O)(=O)c2ccc(C)cc2)cc1 (10 µM) | 0
31 | NCCN1CCN(C/C=C/C(=O)N2CCC[C@@H](n3nc(-c4ccc(Oc5ccccc5)cc4)c4c(N)ncnc43)C2)CC1 [Ibrutinib-MPEA] (10 µM) | 0
32 | O=C(CNC(=O)c1ccc(-c2ccccc2)cc1)NC1CCCc2ccccc21 (configuration not stated) [TAO Kinase inhibitor 1] (10 µM) | 0
